Test results published in PubChem BioAssay AID2685 (National Center for Advancing Translational Sciences (NCATS), 2010).
The campaign covered roughly 320,000 compounds. About 2,100 (0.66%) were called active. The shares of active, inactive and inconclusive entries below differ from those in the screen. Calls come from the whole dose curve; as a rule, active = well fitted inhibition curve with a large enough effect in the signal ratio, with a control signal flat (not every such curve was filed as active); inconclusive = small, poorly fitted or top-dose-only effect, or effect the other way, or a change in a side signal; inactive = flat fitted curve, though single readings scatter; the % refers to the signal ratio. A potency beside an inconclusive call is a rough fit, not a confirmed value.
% is set by controls: 0 for no effect and ±100 for the full control effect; potency is the fitted concentration of half-maximal effect.

Assay: qHTS Assay for Lipid Storage Modulators in Drosophila S3 Cells
Settings: BODIPY lipid droplet fluorescence, 18-24 h, cells fed with added oleic acid; lipid storage change, negative = inhibition: at 46.1 µM (top of the series) unless noted
Summary of the method: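 Drosophila S3 cells got compounds at several concentrations plus oleic acid (400 uM solution). Laser-scanning cytometry with 488 nm excitation read lipid droplets at 500-530 nm and cells at 575-640 nm. Percent activity was relative to 20 uM Triacsin C.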
In the case of `CCN(CC)S(=O)(=O)c1cccc(NC(=O)COC(=O)C2COc3ccccc3O2)c1` (stereo not drawn), the lipid storage change, negative = inhibition is reported as inconclusive: 35.3%.
For `Cc1ccc(NC(=O)/C(=C\c2cccc([N+](=O)[O-])c2)NC(=O)c2cccs2)cc1`, the Potency was inconclusive: 29.1 µM [falling, single point].
For `O=C(/C=C/c1ccc[nH]1)c1ccc(F)cc1`, the Potency was inconclusive: 29.1 µM [falling, single point].
With `Cc1c(OC(C)C(=O)N2C[C@H]3C[C@@H](C2)c2cccc(=O)n2C3)ccc2c3c(c(=O)oc12)CCCC3` (stereo partly drawn) the lipid storage change, negative = inhibition was inconclusive: -40%.
In the case of `COc1cccc(-c2nc(CS(=O)(=O)CC(=O)NCc3ccc4c(c3)OCO4)c(C)o2)c1`, the Potency is reported as inconclusive: 20.6 µM [falling, partial curve, poor fit].
For `CN(C)C1(CNC(=O)C2CCN(S(=O)(=O)c3ccccc3C(F)(F)F)CC2)CCCCC1`, the lipid storage change, negative = inhibition was inconclusive: 31.3%.
With `C=CCc1cc(Cl)ccc1OCCOCCNC(C)(C)C` the Potency was inconclusive: 29.1 µM [cytotoxic, single point].
In the case of `COc1cc2c(cc1OC)C(c1cccc(OC)c1OC)CC(=O)N2` (stereo not drawn), the lipid storage change, negative = inhibition is reported as inconclusive: -9.34%.
In the case of `CC1CCC(NCCNC(=O)c2ccco2)CC1` (stereo not drawn), the Potency is reported as active: 0.82 µM.
In the case of `COc1ccc(/C(C)=N/OCC(=O)N=Nc2c(O)[nH]c3ccc(Br)cc23)cc1`, the Potency is reported as inconclusive: 29.1 µM [falling, single point].
With `Cn1c(=O)c2ccccc2n(CC(=O)N2CCCc3ccccc32)c1=O` the Potency was inconclusive: 0.731 µM [activator, partial curve, poor fit].
For `O=C(COC(=O)c1ccc(N2CCOCC2)c([N+](=O)[O-])c1)Nc1ccc2c(c1)OCO2`, the Potency was inconclusive: 25.9 µM [activator, single point].
In the case of `COc1cc(C2C3=C(CC(C)(C)CC3=O)N(C)C(=O)N2C)cc(OC)c1OC` (stereo not drawn), the lipid storage change, negative = inhibition is reported as inconclusive: -11.1%.
With `O=C(O)Cc1cc2c(s1)CCCCC2` the Potency was inconclusive: 23.1 µM [falling, single point].
In the case of `O=C(NC1CCSc2ccccc21)c1cccc(Br)c1` (stereo not drawn), the Potency is reported as inconclusive: 29.1 µM [falling, single point].
With `Cc1cc(C(=O)CSc2nc(N)cc(=O)[nH]2)c(C)n1Cc1ccco1` the Potency was inconclusive: 18.4 µM [falling, partial curve, poor fit].
In the case of `O=C(NC(=S)N1CCCCCC1)c1ccc(Cl)cc1Cl`, the lipid storage change, negative = inhibition is reported as inconclusive: 20.5%.
For `CCN(CC)c1ccc(-c2sc(Nc3ccccc3)n[n+]2-c2ccc(F)cc2)cc1`, the Potency was inconclusive: 16.4 µM [falling, partial curve, poor fit].
For `CN(CCOc1ccccc1)C(=O)c1cc(-c2ccco2)nc2ccccc12`, the Potency was inconclusive: 0.731 µM [activator, full curve, poor fit].
In the case of `O=C1CCN(c2ncccc2[N+](=O)[O-])CC1`, the lipid storage change, negative = inhibition is reported as inconclusive: 17.3%.
In the case of `Cc1cc(N2CCN(c3cccc(C(F)(F)F)c3)CC2)n2nc(C)nc2n1`, the Potency is reported as inconclusive: 4.61 µM [activator, partial curve].
In the case of `Cc1cc(C(=O)CSc2nn3c(=O)c(C(C)(C)C)nnc3s2)c(C)n1C`, the lipid storage change, negative = inhibition is reported as inconclusive: -16%.
For `Cc1cccc2cc(CN(Cc3ccco3)C(=O)c3cccs3)c(=O)[nH]c12`, the Potency was inconclusive: 0.146 µM [rising, full curve, poor fit].
For `COc1ccc(C(=O)c2cc([N+](=O)[O-])ccc2N2CCN(C)CC2)cc1`, the lipid storage change, negative = inhibition was inconclusive: -30.7% [at 0.369 µM].
In the case of `O=C(N/N=C/C(Cl)=C/c1ccccc1)c1ccccc1F`, the Potency is reported as inconclusive: 23.1 µM [falling, single point].
In the case of `Cc1cc(=O)oc2cc(OC(C)C(=O)NCC3CCC(C(=O)O)CC3)ccc12` (stereo not drawn), the lipid storage change, negative = inhibition is reported as inconclusive: -2.97%.
With `COc1ccccc1C(=O)NCC(c1cccnc1)N(C)C` (stereo not drawn) the Potency was inconclusive: 5.17 µM [activator, single point].
For `Cc1ccc(Cl)cc1NC(=S)N(CCCN1CCN(C)CC1)Cc1cccs1`, the lipid storage change, negative = inhibition was inconclusive: 12.8%.
In the case of `CS(=O)(=O)NNC(=O)c1csc(Cc2c(Cl)sc3ccc(Cl)cc23)n1`, the Potency is reported as inconclusive: 0.13 µM [rising, full curve, poor fit].
With `COc1ccc(N2CC(C(=O)Nc3nc4ccc(F)cc4s3)CC2=O)c(OC)c1` (stereo not drawn) the lipid storage change, negative = inhibition was inconclusive: 13.9%.
In the case of `Cc1ccc2c(c1)Sc1ccccc1CC2=O`, the Potency is reported as inconclusive: 0.411 µM [activator, full curve, poor fit].
With `COc1ccc(-c2nnc(SCC(=O)Nc3ncc(C)s3)n2-c2ccccc2)cc1OC` the lipid storage change, negative = inhibition was inconclusive: 16.6%.
With `COc1ccc(/C=N/NC(=O)Cn2cnc3c2c(=O)n(C)c(=O)n3C)c(OC)c1OC` the lipid storage change, negative = inhibition was inconclusive: -18.1%.
For `CC(C)(C)c1ccc(C(CC(=O)O)NC(=O)C23CC4CC(CC(C4)C2)C3)cc1` (stereo not drawn), the lipid storage change, negative = inhibition was inconclusive: -26.7%.
With `COC(=O)C1=C(C)N(Cc2ccccc2)C(=NCCc2ccccn2)N[C@H]1c1cccc(F)c1` the lipid storage change, negative = inhibition was inconclusive: -37.2%.
For `CCc1ccccc1NS(=O)(=O)c1cc(C)ccc1OC`, the Potency was inconclusive: 23.1 µM [activator, partial curve].
For `O=C(Nc1ccccc1Cl)c1cnccn1`, the lipid storage change, negative = inhibition was inconclusive: -16.1%.
For `COc1ccc([C@@H]2C[C@@H](c3ccccc3)Oc3cc(OC)cc(OC)c32)cc1`, the lipid storage change, negative = inhibition was inconclusive: 62.8%.
For `O=C(OCc1cc(Cl)ccc1OC(F)F)c1cccnc1`, the “lipid storage change, negative = inhibition” value was inactive: 8.44%.
For `Cc1ccc(C(=O)NN2C(=O)C3C4C=CC([C@@H]3C2=O)C42CC2)cc1` (stereo partly drawn), the lipid storage change, negative = inhibition was inconclusive: 18.8%.
With `O=C(Cc1ccc([N+](=O)[O-])cc1)Nc1ccc2c(c1)CCC2` the Potency was inconclusive: 29.1 µM [falling, single point].
In the case of `Cc1cc(C)c(C)c(S(=O)(=O)NC(C(=O)NCCc2ccco2)C(C)C)c1C` (stereo not drawn), the lipid storage change, negative = inhibition is reported as inconclusive: -3.6%.
With `COc1ccc2nc(N3C(=O)CC(Cc4ccc(Cl)cc4)C3=O)sc2c1` (stereo not drawn) the lipid storage change, negative = inhibition was inconclusive: -5.6%.
With `Cc1ccc(NC(=O)OCc2ccccc2S(C)=O)cc1` (stereo not drawn) the lipid storage change, negative = inhibition was inconclusive: 3.41%.
With `CCOC(=O)C1(Cc2cccc(Cl)c2)CCCN(C(=O)c2cc(CC)on2)C1` (stereo not drawn) the Potency was active: 2.31 µM.
In the case of `CCCCC(=O)Nc1cccc(NC(=O)C(C)C)c1`, the Potency is reported as inconclusive: 4.11 µM [activator, single point].
For `CNc1nc(SCc2ccccc2)nc(N2CCOCC2)n1`, the Potency was inconclusive: 2.06 µM [rising, partial curve].
With `Cc1cc(C)n(CCNC(=O)c2cc(COc3c(F)cccc3F)on2)n1` the lipid storage change, negative = inhibition was inconclusive: -15.1%.
In the case of `COc1ccccc1C(c1nnnn1CS(=O)(=O)c1ccc(C)cc1)N1CCSCC1` (stereo not drawn), the lipid storage change, negative = inhibition is reported as inconclusive: 11.1%.
In the case of `CCOc1ccc(N2C(N)=NC(N)=NC2(C)C)cc1`, the Potency is reported as inconclusive: 29.1 µM [cytotoxic, single point].
For `CC(C)c1ccc(Cc2nnc(NCCCO)[nH]c2=O)cc1`, the lipid storage change, negative = inhibition was inconclusive: 0.104%.
With `CCc1ccc(OCC(=O)NC(NC(=S)Nc2ccc(C)cc2C)C(Cl)(Cl)Cl)cc1` (stereo not drawn) the Potency was inconclusive: 29.1 µM [falling, single point].
For `CN(Cc1ccc(F)cc1Cl)S(=O)(=O)c1cccs1`, the lipid storage change, negative = inhibition was inconclusive: 28.9%.
In the case of `Cc1ccc(-c2oc3ncnc(N)c3c2-c2ccc(C)cc2)cc1`, the Potency is reported as inconclusive: 29.1 µM [activator, single point].
In the case of `CCOc1ccc(CN(C)CC(=O)Nc2ccc3c(c2)CCC3)cc1OC`, the lipid storage change, negative = inhibition is reported as inconclusive: -27.3%.
For `Cc1nc(Cl)sc1C(=O)Nc1cc(F)cc(F)c1`, the lipid storage change, negative = inhibition was inconclusive: -39.4%.
For `COc1ccc(CNC(=O)Nc2cccc(Cl)c2)cc1`, the lipid storage change, negative = inhibition was inconclusive: 24.4%.
For `Cc1ccc(-c2oc3ccccc3c(=O)c2OCC(=O)O)cc1`, the lipid storage change, negative = inhibition was inconclusive: -40.3%.
For `O=C(CSC1=NCCS1)N1CCCCCC1`, the Potency was active: 4.61 µM.
For `CC(C)COc1ccc(C(=O)N/C(=C\c2cccc([N+](=O)[O-])c2)C(=O)OC(C)C)cc1`, the lipid storage change, negative = inhibition was inconclusive: -20.3%.
For `CCN(C(=O)CN1C(=O)S/C(=C\c2cccc(Cl)c2)C1=O)C1CCS(=O)(=O)C1` (stereo not drawn), the Potency was inconclusive: 0.164 µM [falling, full curve, poor fit].
With `COCCNc1ccc(N2C(=O)CCCC2=O)cc1[N+](=O)[O-]` the lipid storage change, negative = inhibition was inconclusive: 15.2% [at 9.22 µM].
For `Cn1c(C(=O)OC(C(=O)NC2CCCC2)c2ccncc2)cc2sccc21` (stereo not drawn), the lipid storage change, negative = inhibition was inconclusive: 12.6%.
In the case of `O=C(COc1ccc2c3c(c(=O)oc2c1)CCC3)Nc1ccccn1`, the Potency is reported as inconclusive: 2.06 µM [falling, partial curve, poor fit].
For `Cc1cc(=O)oc(C)c1C(=O)NCCCN1CCN(c2ccc(F)cc2)CC1`, the “lipid storage change, negative = inhibition” value was inactive: 9.77%.
With `Cc1ccccc1CN1CCNC(=O)C1CC(=O)N(C)CCC1CCOCC1` (stereo not drawn) the Potency was inconclusive: 6.51 µM [rising, single point].
For `CC1CCN(C(=O)CCS(=O)(=O)c2cc3c(cc2Cl)NC(=O)CO3)CC1`, the lipid storage change, negative = inhibition was inconclusive: 11.8%.
In the case of `COc1ccc(C(=O)OCC(=O)NC2CCCCCC2)cc1OC`, the Potency is reported as inconclusive: 6.51 µM [falling, single point].
In the case of `Cc1csc(Nc2ccccc2)[n+]1-c1ccccc1`, the Potency is reported as inconclusive: 0.411 µM [falling, full curve, poor fit].
With `COc1ccc(NC(=O)c2nc(C)n(-c3ccc([N+](=O)[O-])cc3)n2)cc1` the lipid storage change, negative = inhibition was inconclusive: 34.8%.
With `COc1cc(CNc2ncc(-c3ccc(Br)cc3)n2C)cc(OC)c1O` the lipid storage change, negative = inhibition was inconclusive: 13.6%.
For `CCOc1ccc(S(=O)(=O)NCCC(=O)NCCOc2ccccc2OC)cc1`, the Potency was inconclusive: 13 µM [activator, partial curve, poor fit].
With `Cc1ccc(NC(=O)CC2SCCNC2=O)cc1Cl` (stereo not drawn) the lipid storage change, negative = inhibition was inconclusive: 24.1%.
